Assay [1] concerns the target SDHA Myc-DDK-tagged (human) (UniProt P31040). Description: condition: only in cells without SDHAF2 (SDHAF2^KO); co-IP; anti-FLAG IgG on protein A/G resin, RIPA lysates of hPheo1 sub-lines without SDHAF2 (SDHAF2^KO/SDHAF4^rec, SDHAF2^KO/SDHAF4^OE) stably expressing SDHA-FLAG; western blot for SDHAF4. For orientation: Immunoblotting shows a protein as a band on a membrane.

Protein sequences, listed by entry. Tags and fused reporters are not part of them. Residues count along the entry.
UniProt P31040, residues 43-664: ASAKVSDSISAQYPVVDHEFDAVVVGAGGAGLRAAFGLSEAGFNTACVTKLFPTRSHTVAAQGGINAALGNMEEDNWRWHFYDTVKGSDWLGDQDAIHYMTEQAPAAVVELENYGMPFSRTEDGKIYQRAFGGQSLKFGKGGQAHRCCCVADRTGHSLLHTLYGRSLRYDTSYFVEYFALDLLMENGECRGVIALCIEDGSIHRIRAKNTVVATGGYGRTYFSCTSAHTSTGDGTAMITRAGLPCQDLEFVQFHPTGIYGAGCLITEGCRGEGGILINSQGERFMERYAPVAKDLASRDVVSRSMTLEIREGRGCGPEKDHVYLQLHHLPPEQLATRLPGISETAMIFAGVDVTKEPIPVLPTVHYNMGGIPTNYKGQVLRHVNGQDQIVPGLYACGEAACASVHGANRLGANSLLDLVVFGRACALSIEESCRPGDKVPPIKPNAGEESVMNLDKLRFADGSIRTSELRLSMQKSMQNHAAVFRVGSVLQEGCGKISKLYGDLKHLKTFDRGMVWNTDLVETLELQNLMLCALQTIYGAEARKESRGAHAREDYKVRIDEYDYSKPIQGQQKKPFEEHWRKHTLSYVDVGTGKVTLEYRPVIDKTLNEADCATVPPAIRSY
UniProt Q5VUM1, residues 21-108: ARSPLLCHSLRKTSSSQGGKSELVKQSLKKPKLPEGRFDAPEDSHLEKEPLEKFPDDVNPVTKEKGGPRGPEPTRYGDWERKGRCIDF

Assay [2] shares this target. Description: co-IP; anti-FLAG IgG on protein A/G resin, RIPA lysates (750 µg) of hPheo1 sub-lines with SDHAF2 (parental, SDHAF4^rec) stably expressing SDHA-FLAG, overnight 4 °C; western blot for SDHAF4.
Assay [3] deals with SDHAF4 re-expressed from pCDH-SDHAF4 (human) (UniProt Q5VUM1). Description: native gel or EMSA; native blue gel electrophoresis (4-16% gradient) of digitonin-solubilised mitochondria of hPheo1 parental, SDHAF4^KO36 and SDHAF4^rec cells, western blot with anti-SDHA, anti-SDHB, anti-SDHAF2, anti-SDHAF4.

Results are given in words; binding and its absence hold for the method and conditions named. For part of these data: In cells and extracts the contact can be indirect. Some entries that bind do so weakly or less than the wild type.

The values that follow come from PMC10784507.

With “SDHAF4 re-expressed from pCDH-SDHAF4 (from UniProt Q5VUM1 21-108)”, the binding entry in assay [1] is given as “no binding”; in assay [2], “binds”; in assay [3] it was “binds”.
